Here are results for one compound from PubChem BioAssay AID483 (Columbia University Molecular Screening Center, 2006).

The other results are listed elsewhere or left out. Some tests of the compounds listed are not included; inactive here does not mean inactive elsewhere.

A short description of this test: inhibitors of mutant huntingtin aggregation, primary screen, imaging, exon1htt(103Q)mCFP cells, high-content imaging (AID 483).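 Also: compound exposure lasted 3 days before fixation; percent of the per-plate median nuclei count of sample wells.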 The following applies: exon1htt(103Q)mCFP cell line, aggregate imaging; measured here: cell count, toxicity; at 2 µM.
Take `O=C(OC1CN2CCC1CC2)C(CO)(c1ccccc1)c1ccccc1` (stereo unspecified): the nuclei count was 111%.
